Measurements published in PMC9143113.

The chains behind the UniProt entries cited, without tags or fusion partners. Where a name states a change or a piece, a line headed by the entry shows the natural chain unless it says otherwise.
UniProt A5F9W9: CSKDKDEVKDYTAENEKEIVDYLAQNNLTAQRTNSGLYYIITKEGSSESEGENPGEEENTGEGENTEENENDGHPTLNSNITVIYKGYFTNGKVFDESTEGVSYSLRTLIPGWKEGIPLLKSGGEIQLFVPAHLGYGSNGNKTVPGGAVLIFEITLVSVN

Target: sfGFP-CTD_(SprB (368 aa)) (Flavobacterium johnsoniae UW101) (UniProt A1E5U5)
Assay: affinity purification with mass spectrometry; co-immunoprecipitation with anti-GFP agarose (Chromotek) from lysates of the F. johnsoniae sfGFP-CTD SprB (368 aa) strain against the F. johnsoniae WT control; LC-MS/MS, MaxQuant LFQ and iBAQ

| Substance | binding |
| --- | --- |
| Fjoh_4997 (PPI) (from UniProt A5F9W9) | binds |
| Fjoh_3466 (homolog of PorD) (from UniProt A5FE93) | binds |

Results are given in words; binding and its absence hold for the method and conditions named. In cells and extracts the contact can be indirect. These calls come from enrichment with a bait or labelling near it, and not all partners need be listed.
